Source: PubChem BioAssay AID1159584 (Peter MacCallum Cancer Centre, 2016)
Assay: 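Knock-downs that harm CDH1-null cells more than parental MCF10A cells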 (primary screen). Cells: human MCF10A breast epithelial cells, parental and CDH1-null. Reagents: siRNA against human genes. Read-out: 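ATP luminescence (CellTiter-Glo) viability per line relative to mean mock wells over all plates, and the ratio of CDH1-null to parental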. Direction: CDH1-null / parental viability ratio: higher = CDH1-null cells survive relatively better than parental.
Here is a random part of about 18,000 reagents tested. Not all columns of the deposit are shown. No sequences are given here. Not stated in the record: the amount of reagent, the time to read-out.

TBC1D29P (TBC1 domain family member 29, pseudogene) gave CDH1-null / parental viability ratio 0.99.
Depletion of DMWD (DM1 locus, WD repeat containing) gave: CDH1-null / parental viability ratio 1.26.
For DNAH3 (dynein axonemal heavy chain 3), the values are CDH1-null / parental viability ratio 0.86.
MXRA5 (matrix remodeling associated 5) scored CDH1-null / parental viability ratio 1.05.
Against LCE2C (late cornified envelope 2C), the values are CDH1-null / parental viability ratio 0.92.
For OR1E2 (olfactory receptor family 1 subfamily E member 2), the values are CDH1-null / parental viability ratio 1.
ZNF304 (zinc finger protein 304) gave CDH1-null / parental viability ratio 0.98.
For CD300LF (CD300 molecule like family member f), the values are CDH1-null / parental viability ratio 1.05.
Against CLC (Charcot-Leyden crystal galectin), the entry reads CDH1-null / parental viability ratio 0.9.
COL2A1 (collagen type II alpha 1 chain) gave CDH1-null / parental viability ratio 1.15.
For E2F6 (E2F transcription factor 6), the values are CDH1-null / parental viability ratio 1.05.
NDUFB2 (NADH:ubiquinone oxidoreductase subunit B2) gave CDH1-null / parental viability ratio 0.97.

3 entries from above, ordered by “CDH1-null / parental viability ratio”, ascending.
CLC (Charcot-Leyden crystal galectin) | CDH1-null / parental viability ratio = 0.9
E2F6 (E2F transcription factor 6) | CDH1-null / parental viability ratio = 1.05
COL2A1 (collagen type II alpha 1 chain) | CDH1-null / parental viability ratio = 1.15

More entries follow:
After knock-down of PAGE2B (PAGE family member 2B), the screen gave CDH1-null / parental viability ratio 0.82.
Against ZNF16 (zinc finger protein 16), the entry reads CDH1-null / parental viability ratio 1.63.
For TTPAL (alpha tocopherol transfer protein like), the entry reads CDH1-null / parental viability ratio 1.1.
For SOCS4 (suppressor of cytokine signaling 4), the values are CDH1-null / parental viability ratio 1.1.
Knock-down of MAN1A2 (mannosidase alpha class 1A member 2) came out at: CDH1-null / parental viability ratio 1.12.
Depletion of MAGEA4 (MAGE family member A4) came out at: CDH1-null / parental viability ratio 0.94.
After knock-down of CEP290 (centrosomal protein 290), the screen gave CDH1-null / parental viability ratio 0.91.
For BECN1 (beclin 1), the values are CDH1-null / parental viability ratio 0.89.
Knock-down of DSCR4 (Down syndrome critical region 4) gave: CDH1-null / parental viability ratio 1.
Against DNAJC19 (DnaJ heat shock protein family (Hsp40) member C19), the values are CDH1-null / parental viability ratio 0.86.
Silencing of ZNF83 (zinc finger protein 83) came out at: CDH1-null / parental viability ratio 1.17.
Depletion of SOX11 (SRY-box transcription factor 11) resulted in: CDH1-null / parental viability ratio 1.13.
